These results are taken from the supplement of paper PMC4604168 (melanoma cell lines).

This is one part of the list. Repeats are few or missing, and single values can be far off.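 Imaging used 1,536-well plates; nuclei positive for cleaved PARP by antibody were divided by total DNA-stained nuclei to yield the apoptosis fraction. Doses for screening kept most cells viable, and cell lines differ markedly in resting and induced cleaved-PARP levels.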

The experiment has as its system MeWo. Put plainly: cleaved PARP positive nuclei fraction relative to DMSO control; melanoma cells; higher = more apoptosis. The following applies: library dose: low library concentration; 72 h.
In the case of `C[C@@H](Oc1cc(-c2cnn(C3CCNCC3)c2)cnc1N)c1c(Cl)ccc(F)c1Cl` [Crizotinib] + CCCCCCCCCCCC1=C(O)C(=O)C=C(O)C1=O [Embelin] (first compound 0.2 µM, partner dose 1.2 µM), the “cleaved PARP positive nuclei fraction” value was 82.6%.

As for `Nc1nc(F)nc2c1ncn2[C@@H]1O[C@H](CO)[C@@H](O)[C@@H]1O` [fludarabine] + Cc1cc(N2CCOCC2)cc2[nH]c(-c3c(NC[C@@H](O)c4cccc(Cl)c4)cc[nH]c3=O)nc12 [BMS536924] (first compound 0.2 µM, partner dose 0.2 µM), the “cleaved PARP positive nuclei fraction” value turned out to be 726%.

As to `Cc1cc(Nc2cc(N3CCN(C)CC3)nc(/C=C/c3ccccc3)n2)n[nH]1` + COc1ccc(COc2ccc(Cc3cnc(N)nc3N)cc2OC)cc1 [GW2580] (first compound 0.04 µM, partner dose 1 µM), the “cleaved PARP positive nuclei fraction” value was found to be 139%.

Take `CNC(=O)c1cc(Oc2ccc(NC(=O)Nc3ccc(Cl)c(C(F)(F)F)c3)cc2)ccn1` [sorafenib] + NCC(=O)Nc1ccc(-n2nc(C(F)(F)F)cc2-c2ccc3c(ccc4ccccc43)c2)cc1 [OSU03012] (first compound 0.4 µM, partner dose 1 µM): the “cleaved PARP positive nuclei fraction” value was determined as 354%.

For `Cc1cc(Nc2cc(N3CCN(C)CC3)nc(/C=C/c3ccccc3)n2)n[nH]1` + OCCn1cc(-c2cnc3nnn(Cc4ccc5ncccc5c4)c3n2)cn1 [PF04217903] (first compound 0.04 µM, partner dose 1 µM), the “cleaved PARP positive nuclei fraction” value was determined as 100%.

With `Nc1nc(F)nc2c1ncn2[C@@H]1O[C@H](CO)[C@@H](O)[C@@H]1O` [fludarabine] + CCc1ccc(CCOc2ccc(CC3SC(=O)NC3=O)cc2)nc1 [pioglitazone] (first compound 0.2 µM, partner dose 2 µM), the “cleaved PARP positive nuclei fraction” value was 334%.

Regarding `CS(=O)(=O)CCNCc1ccc(-c2ccc3ncnc(Nc4ccc(OCc5cccc(F)c5)c(Cl)c4)c3c2)o1` [lapatinib] + OCCn1cc(-c2cnc3nnn(Cc4ccc5ncccc5c4)c3n2)cn1 [PF04217903] (first compound 0.8 µM, partner dose 1 µM), the “cleaved PARP positive nuclei fraction” value was 299%.

For `CNC(=O)c1cc(Oc2ccc(NC(=O)Nc3ccc(Cl)c(C(F)(F)F)c3)cc2)ccn1` [sorafenib] + Cc1cc([N+](=O)[O-])ccc1NS(=O)(=O)c1cc(Cl)ccc1Cl [FH535] (first compound 0.4 µM, partner dose 1 µM), the “cleaved PARP positive nuclei fraction” value is 62.9%.

On to `CN1CCN(c2ccc3nc(-c4c(N)c5c(F)cccc5[nH]c4=O)[nH]c3c2)CC1` [Dovitinib] + COc1ccc2c(c1)CCC1C2CCC2(C)C(NCCCCCCN3C(=O)C=CC3=O)CCC12 [U73122] (first compound 0.1 µM, partner dose 0.4 µM), for which the “cleaved PARP positive nuclei fraction” value worked out at 53.6%.

Turning to `O=C(O)[C@@H]1[O][Sb](=[O])([O][Sb]2(=[O])[O][C@H]([C@H](O)CO)[C@H](O)[C@H](C(=O)O)[O]2)[O][C@H]([C@H](O)CO)[C@@H]1O` (some centres undefined) [stibogluconate] + COc1cc(N2CCC(N3CCN(C)CC3)CC2)ccc1Nc1ncc(Cl)c(Nc2ccccc2S(=O)(=O)C(C)C)n1 [NVP-TAE684] (first compound 2 µM, partner dose 0.08 µM), the “cleaved PARP positive nuclei fraction” value stood at 101%.

With `CCCS(=O)(=O)Nc1ccc(F)c(C(=O)c2c[nH]c3ncc(Cl)cc23)c1F` + N#Cc1c(O)c2c(-c3ccc(-c4ccccc4O)cc3)csc2[nH]c1=O [A769662] (first compound 0.08 µM, partner dose 2 µM), the “cleaved PARP positive nuclei fraction” value came out at 34.4%.

Take `CN1CCN(c2ccc3nc(-c4c(N)c5c(F)cccc5[nH]c4=O)[nH]c3c2)CC1` [Dovitinib] + Cc1cc(N2CCOCC2)cc2[nH]c(-c3c(NC[C@@H](O)c4cccc(Cl)c4)cc[nH]c3=O)nc12 [BMS536924] (first compound 0.1 µM, partner dose 0.2 µM): the “cleaved PARP positive nuclei fraction” value was found to be 129%.

As for `C[C@@H](Oc1cc(-c2cnn(C3CCNCC3)c2)cnc1N)c1c(Cl)ccc(F)c1Cl` [Crizotinib] + COc1ccc(-c2ccc3c(N4CCOCC4)nc(N4C[C@@H](C)O[C@@H](C)C4)nc3n2)cc1CO [KU0063794] (first compound 0.2 µM, partner dose 0.02 µM), the “cleaved PARP positive nuclei fraction” value was found to be 111%.

Take `O=C(O)[C@@H]1[O][Sb](=[O])([O][Sb]2(=[O])[O][C@H]([C@H](O)CO)[C@H](O)[C@H](C(=O)O)[O]2)[O][C@H]([C@H](O)CO)[C@@H]1O` (some centres undefined) [stibogluconate] + O=C(O)c1ccc(-c2c[nH]c3ncc(-c4ccccc4)cc23)cc1C1CCCC1 [GSK650394] (first compound 2 µM, partner dose 0.16 µM): the “cleaved PARP positive nuclei fraction” value was found to be 313%.
